Test results published in US12370255B2 (Barinthus Biotherapeutics North America, Inc., priority 2017, dated 2025).
The same purity stands for every peptide and may come from a single statement. Some peptides are written in HELM: one residue between dots, names in brackets for other building blocks, links after the first $.

Experiment: general procedure: Fmoc solid-phase peptide synthesis
Settings: conjugation step; for final HPLC purity: 254 nm

Row | Substance | conjugation yield [% yield] | final HPLC purity [% AUC at 254 nm]
1 | DBCO-2B1W4, 2B1W4 or DBCO-(Glu(2B)1(Trp)4) | 55.4 | >95
2 | DBCO-2B2W3, 2B2W3 or DBCO-(Glu(2B)2(Trp)3) | 62.5 | >95
3 | DBCO-2B2W8, 2B2W8 or DBCO-(Glu(2B)2(Trp)8) | 16.3 | >95
4 | DBCO-2B3W2, 2B3W2 or DBCO-(Glu(2B)3(Trp)2) | 50.6 | >95
5 | DBCO-2B4W6, 2B4W6 or DBCO-(Glu(2B)4(Trp)6) |  | >95
6 | DBCO-2B6W4, 2B6W4 or DBCO-(Glu(2B)6(Trp)4) |  | >95
7 | DBCO-2BXy1W4, 2BXy1W4 or DBCO-(Glu(2BXy)1(Trp)4) | 73.3 | >95
8 | DBCO-2BXy3W2, 2BXy3W2 or DBCO-(Glu(2BXy)3(Trp)2) | 38.1 | 
9 | DBCO-(2BGWGWG)5, 2B5W10G15 or DBCO-(Glu(2B)5(Trp)10(Gly)15) (KGWGWGKGWGWGKGWGWGKGWGWGKGWGWG; DBCO; 2B-modified Glu residues; MOD_RES (1)..(1) 1-(4-aminobutyl)-2-butyl-1H-imidazo[4,5- c]quinolin-4-amine Lys; MOD_RES (7)..(7) 1-(4-aminobutyl)-2-butyl-1H-imidazo[4,5- c]quinolin-4-amine Lys; MOD_RES (13)..(13) 1-(4-aminobutyl)-2-butyl-1H-imidazo[4,5- c]quinolin-4-amine Lys; MOD_RES (19)..(19) 1-(4-aminobutyl)-2-butyl-1H-imidazo[4,5- c]quinolin-4-amine Lys; MOD_RES (25)..(25) 1-(4-aminobutyl)-2-butyl-1H-imidazo[4,5- c]quinol) | 26 | 
10 | DBCO-(GG2B)5, 2B5G10 or DBCO-(Glu(2B)5(Gly)10) (GGEGGEGGEGGEGGE; DBCO; 2B-modified Glu residues; MOD_RES (3)..(3) 1-(4-aminobutyl)-2-butyl-1H-imidazo[4,5- c]quinolin-4-amine Glu; MOD_RES (6)..(6) 1-(4-aminobutyl)-2-butyl-1H-imidazo[4,5- c]quinolin-4-amine Glu; MOD_RES (9)..(9) 1-(4-aminobutyl)-2-butyl-1H-imidazo[4,5- c]quinolin-4-amine Glu; MOD_RES (12)..(12) 1-(4-aminobutyl)-2-butyl-1H-imidazo[4,5- c]quinolin-4-amine Glu; MOD_RES (15)..(15) 1-(4-aminobutyl)-2-butyl-1H-imidazo[4,5- c]quinolin) | 36.2 | >95
11 | Mal-2B3W2 or Mal-(Glu(2B)3(Trp)2) | 66.7 | 
12 | PEPTIDE1{[DBCO].[Glu(2B)].[Glu(2B)].[Glu(2B)].[Glu(2B)].[Glu(2B)].[am]}$$$$V2.0 | 62.6 | >95
13 | PEPTIDE1{[DBCO].[Glu(2BXy)].[Glu(2BXy)].[Glu(2BXy)].[Glu(2BXy)].[Glu(2BXy)].[am]}$$$$V2.0 | 63.4 | >95
